No constants are given. Whether binding was seen depends on the method and setting. In cells and extracts the contact can be indirect. Some entries that bind do so weakly or less than the wild type.

By UniProt entry, the sequences of proteins in these tests, tags left out.
UniProt Q9Z2V6: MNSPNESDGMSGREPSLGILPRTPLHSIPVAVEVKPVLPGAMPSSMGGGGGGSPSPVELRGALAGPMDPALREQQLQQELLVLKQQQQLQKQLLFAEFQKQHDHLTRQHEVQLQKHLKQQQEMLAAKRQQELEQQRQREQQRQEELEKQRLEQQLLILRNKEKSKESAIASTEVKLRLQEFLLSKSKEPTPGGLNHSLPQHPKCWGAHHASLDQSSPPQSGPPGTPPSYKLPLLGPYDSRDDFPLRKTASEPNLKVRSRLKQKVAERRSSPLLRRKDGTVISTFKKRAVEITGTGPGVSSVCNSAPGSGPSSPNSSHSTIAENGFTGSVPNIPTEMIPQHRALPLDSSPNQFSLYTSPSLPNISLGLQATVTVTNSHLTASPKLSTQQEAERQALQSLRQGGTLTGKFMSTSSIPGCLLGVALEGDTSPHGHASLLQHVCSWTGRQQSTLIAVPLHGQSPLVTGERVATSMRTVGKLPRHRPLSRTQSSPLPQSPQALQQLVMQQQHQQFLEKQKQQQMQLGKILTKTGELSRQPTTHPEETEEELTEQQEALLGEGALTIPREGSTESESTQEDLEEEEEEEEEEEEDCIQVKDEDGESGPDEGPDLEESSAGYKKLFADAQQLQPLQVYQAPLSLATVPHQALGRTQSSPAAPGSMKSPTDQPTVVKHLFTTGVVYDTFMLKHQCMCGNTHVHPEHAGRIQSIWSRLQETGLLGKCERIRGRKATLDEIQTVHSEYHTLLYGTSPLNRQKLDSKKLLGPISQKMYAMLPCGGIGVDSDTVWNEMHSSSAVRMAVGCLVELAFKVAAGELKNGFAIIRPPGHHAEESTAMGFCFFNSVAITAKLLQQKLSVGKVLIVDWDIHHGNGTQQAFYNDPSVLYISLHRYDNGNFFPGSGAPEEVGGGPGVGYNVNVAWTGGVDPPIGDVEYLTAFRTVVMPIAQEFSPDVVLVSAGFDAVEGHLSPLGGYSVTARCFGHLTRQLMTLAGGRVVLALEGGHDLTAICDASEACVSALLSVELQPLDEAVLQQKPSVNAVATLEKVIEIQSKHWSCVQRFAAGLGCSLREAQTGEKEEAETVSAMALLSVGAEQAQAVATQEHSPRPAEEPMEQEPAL
UniProt P42227: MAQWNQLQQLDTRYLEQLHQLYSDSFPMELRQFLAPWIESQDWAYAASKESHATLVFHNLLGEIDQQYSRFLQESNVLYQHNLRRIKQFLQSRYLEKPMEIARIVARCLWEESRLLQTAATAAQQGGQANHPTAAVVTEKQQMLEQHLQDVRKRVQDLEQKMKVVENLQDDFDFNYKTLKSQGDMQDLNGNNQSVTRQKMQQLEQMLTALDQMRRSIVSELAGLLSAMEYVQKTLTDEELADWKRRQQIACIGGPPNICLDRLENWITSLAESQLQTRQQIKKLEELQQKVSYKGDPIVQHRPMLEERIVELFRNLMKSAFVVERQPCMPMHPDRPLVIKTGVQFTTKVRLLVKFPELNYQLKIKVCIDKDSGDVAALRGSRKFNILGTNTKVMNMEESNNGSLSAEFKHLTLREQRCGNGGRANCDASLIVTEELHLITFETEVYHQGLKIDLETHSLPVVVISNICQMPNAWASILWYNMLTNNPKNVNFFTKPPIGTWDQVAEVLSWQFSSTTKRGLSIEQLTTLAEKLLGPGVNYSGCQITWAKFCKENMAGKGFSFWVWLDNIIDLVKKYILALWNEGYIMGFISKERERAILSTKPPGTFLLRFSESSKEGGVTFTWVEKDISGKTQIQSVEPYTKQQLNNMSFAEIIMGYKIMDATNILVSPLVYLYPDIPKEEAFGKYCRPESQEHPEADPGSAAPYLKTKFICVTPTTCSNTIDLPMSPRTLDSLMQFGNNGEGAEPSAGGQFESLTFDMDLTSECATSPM

The test deals with histone deacetylase 5 (mouse (endogenous in CLU177)) (UniProt Q9Z2V6). Put plainly: co-IP; endogenous proteins; CLU177 cells lysed in NP40 lysis buffer (25 mM Tris-HCl pH 7.4, 150 mM NaCl, 1 mM EDTA, 1% NP-40); 500 ug lysate with 4 ug anti-HDAC5, protein A/G magnetic beads overnight at 4 C, washed with PBS 0.02% Tween 20; blots for HDAC5, STAT3 and pSTAT3 T705.

Take STAT3 (from UniProt P42227 1-770): the binding result is “binds”.

Source of the values: PMC4773494.
